Binding data for 1 substance are collected here from publication doi:10.1101/2021.05.24.445396.

Sequences of proteins named here, by UniProt entry; tags and fusion partners are left off. Residues count along the entry.
UniProt Q969D9, residues 29-159: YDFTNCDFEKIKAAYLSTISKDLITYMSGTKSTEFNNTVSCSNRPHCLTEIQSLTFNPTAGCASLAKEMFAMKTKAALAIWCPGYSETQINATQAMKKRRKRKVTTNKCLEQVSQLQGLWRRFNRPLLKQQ

Results are given in words; binding and its absence hold for the method and conditions named. In cells and extracts the contact can be indirect.

The target of the test is T1, chromobox 4 (CBX4) (human (endogenous in HBE)) (UniProt O00257).
T1 sequence: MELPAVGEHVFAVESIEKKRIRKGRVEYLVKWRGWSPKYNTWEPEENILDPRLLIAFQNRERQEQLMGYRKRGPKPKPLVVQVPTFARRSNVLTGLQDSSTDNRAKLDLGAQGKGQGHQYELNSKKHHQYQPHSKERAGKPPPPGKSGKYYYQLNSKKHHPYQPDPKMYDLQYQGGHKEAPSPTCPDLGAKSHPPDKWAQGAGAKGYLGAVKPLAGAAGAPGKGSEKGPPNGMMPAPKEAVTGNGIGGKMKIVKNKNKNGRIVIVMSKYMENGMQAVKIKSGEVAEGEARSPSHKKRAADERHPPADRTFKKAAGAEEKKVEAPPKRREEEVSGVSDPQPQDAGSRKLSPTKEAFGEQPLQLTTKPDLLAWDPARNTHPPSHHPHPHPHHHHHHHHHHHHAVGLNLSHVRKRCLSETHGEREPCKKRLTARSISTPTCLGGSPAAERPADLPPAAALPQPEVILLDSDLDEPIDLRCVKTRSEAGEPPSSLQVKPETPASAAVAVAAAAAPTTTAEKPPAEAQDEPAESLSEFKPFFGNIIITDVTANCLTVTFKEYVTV
Put plainly: co-IP.

Regarding “long-form thymic stromal lymphopoietin (lfTSLP) (from UniProt Q969D9-1 29-159)”, the binding result is “no binding”.
